These are yes or no findings as the source states them, for the method shown. Some results given as binding are weak or reduced against the parent protein; the word gives no strength.

Sequences of proteins named here, by UniProt entry; tags and fusion partners are left off.
UniProt Q10589: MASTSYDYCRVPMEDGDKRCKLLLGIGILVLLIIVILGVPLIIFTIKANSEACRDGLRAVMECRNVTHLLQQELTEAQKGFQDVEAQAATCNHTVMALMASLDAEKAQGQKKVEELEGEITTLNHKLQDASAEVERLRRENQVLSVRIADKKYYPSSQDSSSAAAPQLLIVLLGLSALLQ
UniProt P03165: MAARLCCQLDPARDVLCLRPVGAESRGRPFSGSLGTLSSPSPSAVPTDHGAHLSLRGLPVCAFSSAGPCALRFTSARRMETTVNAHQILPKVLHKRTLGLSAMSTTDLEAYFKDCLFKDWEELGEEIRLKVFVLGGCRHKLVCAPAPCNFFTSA

The target of the assay is pBIND-BST-2 IHA (BST-2 fused to the GAL4 DNA-binding domain) (human) (UniProt Q10589). The assay is described as follows: two-hybrid; CheckMate mammalian two-hybrid in hepatic L02 cells: pBIND-BST-2 IHA, pACT-HBx and pG5luc, 500 ng each; firefly luciferase normalised by Renilla luciferase after 48 h.

Turning to “pACT-HBx (HBx fused to the VP16 activation domain) (from UniProt P03165 1-154)”, the binding result is given as “binds”.

Values taken from PMC4484258.
